PubChem BioAssay AID2685 (National Center for Advancing Translational Sciences (NCATS), 2010)
The campaign covered roughly 320,000 compounds. About 2,100 (0.66%) were called active. Inconclusive results, whose numbers are uncertain, are shown with a selection of clear calls. The call rests on the fitted dose curve; in most records, active means well fitted inhibition curve with a large enough effect in the signal ratio, with a control signal flat (not every such curve was filed as active); inconclusive means small, poorly fitted or top-dose-only effect, or effect the other way, or a change in a side signal; inactive means flat fitted curve, though single readings scatter; the % refers to the signal ratio. A potency beside an inconclusive call is a rough fit, not a confirmed value.

assay: qHTS Assay for Lipid Storage Modulators in Drosophila S3 Cells; details: BODIPY lipid droplet fluorescence, 18-24 h, cells fed with added oleic acid; lipid storage change, negative = inhibition: at 46.1 µM (top of the series) unless noted
Summary of the method: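 Laser-scanning cytometry quantifies lipid droplet accumulation (500–530 nm total intensity; droplet/cell object ratio) in oleic acid-fed (400 uM added) Drosophila S3 cells treated with a concentration series. 20 uM Triacsin C defined 100% inhibition.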
On the % scale 0 is the no-effect control and ±100 the full control effect; potency means the concentration at half of the fitted maximal effect.

| SMILES | lipid storage change, negative = inhibition | Potency |
| --- | --- | --- |
| COc1ccc(S(=O)(=O)N2CCN(C(=O)CN3C(=O)NC(C)(C)C3=O)CC2)cc1 | inconclusive: 2.78% |  |
| C#Cc1ccc([C@@H]2C=C(C(=O)NC3CC3)O[C@H](OCC)[C@H]2CCCO)cc1 | inconclusive: 11.7% |  |
| Nc1c(C(=O)O)sc2nc(-c3ccc(F)cc3)cc(-c3ccccc3)c12 |  | inconclusive: 0.082 µM [rising, full curve] |
| O=C(CC1CCS(=O)(=O)C1)NC1CCCCC1 (stereo not given) | inconclusive: -21.7% |  |
| Clc1ccc(-c2nnnn2-c2ccc(Cl)cc2)cc1 | inconclusive: 3.81% |  |
| Cc1cccc(Cl)c1NC(=O)N1CCN(c2ccnc3cc(Cl)ccc23)CC1 | inconclusive: -59.4% |  |
| COc1ccc(Nc2oc(COc3ccc(OC)cc3)nc2C#N)cc1 | inconclusive: -12.2% |  |
| O=C(CN1C(=O)NC2(CCCC2)C1=O)OCCOc1ccccc1Cl | inconclusive |  |
| Cc1ccc2cccc(OCCCOc3ccccc3F)c2n1 | inconclusive: -39% |  |
| CC(=O)N1CCCc2cc(S(=O)(=O)N3CCCC(C(=O)N4CCN(c5ccccc5)CC4)C3)ccc21 (stereo not given) | inconclusive: -34.7% |  |
| COc1cc(CNCc2ccco2)cc(OC)c1O |  | inconclusive: 32.6 µM [activator, single point] |
| COc1ccc(Nc2nc(N)nc(CN3CCC(Cc4ccccc4)CC3)n2)cc1 | inconclusive: 24.7% |  |
| COC(=O)c1cc(Cl)c(NC(=O)c2ccc(C(C)(C)C)cc2)cc1OC | inconclusive: -42.7% |  |
| COc1ccc(CNC(=O)c2cc3cc(OC)ccc3oc2=O)cc1 |  | inconclusive: 29.1 µM [activator, single point] |
| COc1cc(/C=N/n2cnnc2)ccc1OC(=O)c1ccncc1 | inconclusive: -7.54% |  |
| CC(Sc1nnc(N)s1)C(=O)c1c(N)n(C)c(=O)n(C)c1=O (stereo not given) | inconclusive |  |
| Clc1cccc(Cl)c1Cn1cnc2c(N3CCCCCC3)ncnc21 |  | inconclusive: 1.84 µM [rising, partial curve] |
| CC(=O)C1=C(O)C(=O)N(Cc2ccco2)C1c1ccccc1 (stereo not given) | inconclusive: -12.4% |  |
| COC(=O)c1ccccc1NC(=O)c1cc(-c2ccc(O)cc2)on1 | inconclusive: 50.5% [activator] |  |
| CCC(=O)N1CCN(c2ccc(NC(=S)NC(=O)c3cccc([N+](=O)[O-])c3)cc2)CC1 |  | inconclusive: 16.4 µM [cytotoxic, partial curve] |
| COc1ccccc1CNS(=O)(=O)N(C)C |  | inconclusive: 23.1 µM [falling, single point] |
| O=C(CCl)N(C1CCCC1)C1CCS(=O)(=O)C1 (stereo not given) |  | inconclusive: 29.1 µM [falling, partial curve, poor fit] |
| CCCOc1ccc(C(=O)CCC(=O)OCC(=O)Nc2cc(C)on2)cc1 |  | inconclusive: 29.1 µM [falling, single point] |
| O=C(CC(Cc1ccccc1)c1ccco1)NCc1ccco1 (stereo not given) | inconclusive: 11.5% |  |
| CCOC(=O)Cn1c(=O)oc2cc(S(=O)(=O)N(C)c3cccc(C)c3)ccc21 | inconclusive: 43.1% |  |
| CC(=O)c1ccc(OCc2cc(C(=O)N(C)Cc3ccccn3)no2)cc1 | inconclusive: -54.9% |  |
| COc1ccccc1NS(=O)(=O)c1ccc(C(=O)NCCCN2CCCC2=O)cc1 | inconclusive: -62.3% |  |

Record cards, from the list above:
`Clc1cccc(Cl)c1Cn1cnc2c(N3CCCCCC3)ncnc21` is entered as Potency: inconclusive: 1.84 µM [rising, partial curve]
`O=C(CCl)N(C1CCCC1)C1CCS(=O)(=O)C1` (stereo not given) is entered as Potency: inconclusive: 29.1 µM [falling, partial curve, poor fit]
`CC(Sc1nnc(N)s1)C(=O)c1c(N)n(C)c(=O)n(C)c1=O` (stereo not given) is entered as lipid storage change, negative = inhibition: inconclusive

Following part

| SMILES | lipid storage change, negative = inhibition | Potency |
| --- | --- | --- |
| C=CCn1c(C(C)NC(=O)c2ccccc2C)n[nH]c1=S (stereo not given) | inconclusive: 4.5% |  |
| Cc1ccc(C)c(NC(=O)CN(C)C(=O)c2ccccc2OCc2ccccc2Cl)c1 |  | inconclusive: 3.66 µM [activator, partial curve] |
| O=C(NCc1ccccc1)C1=C[C@H](c2ccc3c(c2)OCO3)C[C@H](OCCCCO)O1 | inconclusive: 11.2% |  |
| C/C(=N\NS(=O)(=O)c1ccc(Cl)c([N+](=O)[O-])c1)c1cc2ccccc2o1 | inconclusive: 2.9% |  |
| O=C(C1=C[C@@H](c2ccc(C(F)(F)F)cc2)C[C@@H](OCCCCO)O1)N1CCN(Cc2ccc3c(c2)OCO3)CC1 |  | inconclusive: 0.092 µM [falling, full curve, poor fit] |
| C=CCn1c(C)nnc1SCC(=O)Nc1cc(S(=O)(=O)N2CCCC2)ccc1Cl |  | inconclusive: 0.58 µM [falling, partial curve, poor fit] |
| O=C1CCc2cc(S(=O)(=O)Nc3ccccc3)ccc2N1 | inconclusive: 15.7% |  |
| CC(C)C(=O)NC(=S)Nc1ccc(S(=O)(=O)NC2CCCCC2)cc1 |  | inconclusive: 2.59 µM [activator, partial curve] |
| COc1ccc(N2CCN(C(=O)c3cccc(S(=O)(=O)N4CCOCC4)c3)CC2)cc1 |  | inconclusive: 4.61 µM [falling, single point] |
| CCCn1c(C)cc(C(=O)COC(=O)CN=C2NS(=O)(=O)c3ccccc32)c1C | inconclusive: -17.5% |  |
| O=C(Nc1nc2c(F)cc(F)cc2s1)c1ccccn1 | inconclusive: -2.74% |  |
| COc1ccc(NC(=O)CN2CCN(CC#N)CC2)cc1 | inconclusive: 14.4% |  |
| N#Cc1c(-c2ccccc2)nc(SCC(=O)Nc2ccccc2)[nH]c1=O | inconclusive: 24.1% |  |
| CCOc1ccc(C(=O)NNC2CC(=O)N(Cc3ccc(Cl)cc3)C2=O)cc1OC (stereo not given) | inconclusive: 11.4% |  |
| O=C(O)CCCCCNC(=O)C(=O)C1C(=O)Nc2ccccc21 (stereo not given) | inconclusive: 10.1% |  |
| COc1ccc(CCn2c(-c3cc([N+](=O)[O-])cc([N+](=O)[O-])c3)nc3nc4ccccc4nc32)cc1 | inconclusive: 20.5% |  |
| CCC(C(=O)N1CCN(c2cccc(Cl)c2)CC1)c1ccccc1 (stereo not given) | inconclusive: 59.1% |  |
| CCCCC1CCC(c2nc(-c3cccnc3)no2)CC1 (stereo not given) | inactive |  |
| Cc1ccc(C)c2c1sc(=NC(=O)CN1C(=O)CCC1=O)n2C | inconclusive: 3.95% |  |
| CN(C)c1ccc(C(=O)Nc2cccc(S(=O)(=O)NC3=NCCCCC3)c2)cc1 | inconclusive: -84.7% |  |
| Cc1ccnc(NC(=O)c2ccc(C(=O)c3ccccc3)cc2)c1 |  | inconclusive: 23.1 µM [cytotoxic, partial curve] |
| Cc1cccc(C)c1NC(=O)CSC(=S)N1CCCC1 | inconclusive: 38.6% |  |
| O=C(O)C1C2C=CC(O2)C1C(=O)NCCCn1ccnc1 (stereo not given) | inconclusive: 0.214% |  |
| CC(=O)Nc1c(O)nc(SCc2ccc(Cl)cc2)[nH]c1=O | inconclusive: 16.9% |  |
| COC(=O)c1ccccc1NC(=O)C1=CC(c2cccs2)=NS(=O)(=O)N1C | inactive |  |
| CN(C)c1nc(NC(C)(C)C)nc(NC(C)(C)C)n1 | inconclusive: -30.8% |  |
| O=C(CCCOc1ccccc1)Nc1cccc(S(=O)(=O)N2CCCCCC2)c1 |  | active: 0.651 µM |

| SMILES | lipid storage change, negative = inhibition | Potency |
| --- | --- | --- |
| COc1ccc(-c2[nH]c3ccccc3c2SCCN)cc1 | inconclusive: 25.2% |  |
| CC(CCc1ccccc1)NC(=O)CSc1ccccc1 (stereo not given) | inconclusive: 2.5% |  |
| Cc1cnc(C(=O)OCC(=O)Nc2cc(-c3cc(C)c(C)cc3C)nn2-c2ccccc2)cn1 |  | inconclusive: 5.17 µM [rising, partial curve] |
| CCN(CC)S(=O)(=O)c1ccc(OC)c(NC(=O)C2CC(=O)N(c3ccc4c(c3)OCCO4)C2)c1 (stereo not given) | inactive |  |
| O=C(CN=C1NC(=O)C(c2ccccc2)(c2ccccc2)N1)NCc1ccc(F)cc1 | inconclusive: -27.1% |  |
| Cc1nc(SCC(=O)NC(=O)NC2CCCCC2)nc(C)c1C | inactive |  |
| COCCCN(C(=O)Cc1ccc(Cl)c(Cl)c1)c1c(N)n(Cc2ccccc2)c(=O)[nH]c1=O | inconclusive: -13.2% |  |
| O=C(CN1C(=O)CSc2ccc(S(=O)(=O)N3CCOCC3)cc21)NCc1cccnc1 | inconclusive: 1.07% |  |
| O=S(=O)(Nc1cccc(-c2cn3cccnc3n2)c1)c1ccc(Cl)cc1 |  | inconclusive: 18.4 µM [falling, single point] |
| COC(=O)C1=C(C)N(C)C(=O)NC1c1ccccc1 (stereo not given) |  | active: 29.1 µM |
| CN(CCNC(=O)c1cc2c(=O)n(C)c3ccccc3c2n1C)Cc1ccccc1 | inconclusive: 23.3% |  |
| CCOC(=O)CNC(=O)COc1ccc(Cl)cc1Br | inconclusive: 21.6% |  |
| CCn1c(SCC(=O)Nc2ccc(OC)c(OC)c2)nnc1-c1cnccn1 | inconclusive: 22.4% |  |
| CCC(=O)Nc1ccc(C(=O)Cn2ncc(Cl)c(Cl)c2=O)cc1 |  | inconclusive: 6.51 µM [falling, single point] |
| Cc1cc(C)c(NC(=O)CN(C)C(=O)CCC(=O)c2ccc(C)s2)c(C)c1 | inconclusive: 24.8% |  |
| c1ccc(Cn2c(NCc3ccccn3)nc3ccccc32)cc1 | inconclusive: -0.571% |  |
| CN1CCN(C(=O)C2CCN(c3ncc(C(F)(F)F)cc3Cl)CC2)CC1 | inconclusive: -30.8% |  |
| CCn1c2ccccc2c2cc(NC(C)=O)ccc21 | inconclusive: 30.7% |  |
| CCOc1ccc(-c2ccc(/C=C3/C(=N)N4C(C)=CSC4=NC3=O)o2)c([N+](=O)[O-])c1 |  | inconclusive: 29.1 µM [falling, single point] |
| COc1cccc(C(=O)Nc2ccc3[nH]ncc3c2)c1 | inconclusive: 28.4% |  |
| CC(=O)c1sc(NC(=O)c2ccccc2C)nc1C | inconclusive: 11.5% |  |
| Cc1cc(N/C=C/C(=O)c2ccccc2)ccc1Br | inconclusive: -12.3% |  |
| Cc1ccc(C(=O)N(c2ccccn2)C(C)c2ccco2)cc1 (stereo not given) |  | inconclusive: 16.4 µM [falling, single point] |
| COc1cccc(N2CCN(Cc3cccnc3)CC2)c1 | inconclusive: 10.8% |  |
| CC(Sc1ccccn1)C(=O)Nc1ccccc1 (stereo not given) | inconclusive: 17.2% |  |
| Nc1nn(-c2cccc(F)n2)cc1-c1ccccc1 | inconclusive: 26.6% |  |
